Measurements from patent publication US8039514B2, “Sulfonamide compounds and use thereof” (Asahi Kasei Pharma Corporation, priority 2008, dated 2011).
Some entries share one result that the patent states for a list of compounds.

Target: T1, human calcium-sensing receptor (CaSR) (Homo sapiens, UniProt P41180)
T1 construct: expressed in transfected cells
T1 sequence (P41180 20-1078): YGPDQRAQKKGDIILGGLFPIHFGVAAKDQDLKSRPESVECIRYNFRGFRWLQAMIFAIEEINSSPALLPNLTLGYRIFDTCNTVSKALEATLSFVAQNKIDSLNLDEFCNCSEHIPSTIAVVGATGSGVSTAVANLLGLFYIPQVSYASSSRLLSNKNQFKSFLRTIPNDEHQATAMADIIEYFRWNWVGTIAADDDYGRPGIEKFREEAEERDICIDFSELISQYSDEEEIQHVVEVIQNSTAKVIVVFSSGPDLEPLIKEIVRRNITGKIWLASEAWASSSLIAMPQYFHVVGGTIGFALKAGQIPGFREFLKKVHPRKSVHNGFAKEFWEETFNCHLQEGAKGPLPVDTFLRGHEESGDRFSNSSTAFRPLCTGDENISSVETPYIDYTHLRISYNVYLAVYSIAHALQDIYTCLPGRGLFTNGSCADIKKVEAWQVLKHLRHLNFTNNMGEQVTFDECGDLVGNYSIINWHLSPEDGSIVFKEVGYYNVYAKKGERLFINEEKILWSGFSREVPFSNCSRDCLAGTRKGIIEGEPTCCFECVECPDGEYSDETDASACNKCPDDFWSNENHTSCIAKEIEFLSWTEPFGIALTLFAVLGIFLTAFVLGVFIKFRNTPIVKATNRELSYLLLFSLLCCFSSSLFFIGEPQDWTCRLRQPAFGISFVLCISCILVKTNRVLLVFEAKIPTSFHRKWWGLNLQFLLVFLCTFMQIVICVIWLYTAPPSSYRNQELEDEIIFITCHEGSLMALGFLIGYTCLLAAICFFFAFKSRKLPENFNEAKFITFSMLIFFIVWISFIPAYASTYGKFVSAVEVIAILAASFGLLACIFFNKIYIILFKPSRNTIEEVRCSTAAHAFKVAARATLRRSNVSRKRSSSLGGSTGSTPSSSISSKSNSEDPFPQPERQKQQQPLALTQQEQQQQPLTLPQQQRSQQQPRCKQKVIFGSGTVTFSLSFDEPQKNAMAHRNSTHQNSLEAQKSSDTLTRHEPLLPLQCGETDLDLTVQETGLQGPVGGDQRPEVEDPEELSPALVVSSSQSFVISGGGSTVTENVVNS
Assay: intracellular Ca assay, CaSR antagonist activity in HEK293/hCaSR cells
Type: cell-based
Conditions: Fura2-AM, inhibition of response to calcium chloride ligand solution
Outline: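 HEK293/hCaSR cells were loaded with Fura2-AM and pre-incubated with compound for 160 s at 37° C in HEPES buffer (pH 7.4, 0.8 mM CaCl2), then challenged with calcium ligand solution. Read-out was the peak 340/380 nm fluorescence ratio; inhibition is relative to no-compound (0%) and no-calcium-ligand (100%) controls.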

## CN(C[C@H](O)CNC(C)(C)CC1Cc2ccccc2C1)S(=O)(=O)c1cc(-c2cccc(CCC(=O)O)n2)cc(C(F)(F)F)c1 [Exp. 8-15, (R)-3-(6-(3-(N-(3-(1-(2,3-dihydro-1H-inden-2-yl)-2-methylpropan-2-ylamino)-2-hydroxypropyl)-N-methylsulfamoyl)-5-(trifluoromethyl)phenyl)pyridin-2-yl)propionic acid]
  IC50 values according to the intracellular Ca assay (CaSR antagonist activity): 1.0 to 0.3 μM

## CCc1cc(-c2c(F)cccc2CCC(=O)O)ccc1S(=O)(=O)N(C)C[C@H](O)CNC(C)(C)CCCc1ccc(F)nc1 [Exp. 8-16, (R)-3-(3′-ethyl-6-fluoro-4′-(N-(3-(5-(6-fluoropyridin-3-yl)-2-methylpentan-2-ylamino)-2-hydroxypropyl)-N-methylsulfamoyl)biphenyl-2-yl)propionic acid]
  IC50 values according to the intracellular Ca assay (CaSR antagonist activity): 1.0 to 0.3 μM

## CCc1cc(-c2c(F)cccc2CCC(=O)O)ccc1S(=O)(=O)N(C)C[C@H](O)CNC(C)(C)CCCc1ccncc1F [Exp. 8-18, (R)-3-(3′-ethyl-6-fluoro-4′-(N-(3-(5-(3-fluoropyridin-4-yl)-2-methylpentan-2-ylamino)-2-hydroxypropyl)-N-methylsulfamoyl)biphenyl-2-yl)propionic acid]
  IC50 values according to the intracellular Ca assay (CaSR antagonist activity): 1.0 to 0.3 μM

## CCc1cc(-c2c(F)cccc2CCC(=O)O)ccc1S(=O)(=O)N(C)C[C@H](O)CNC(C)(C)CCCc1ccncc1 [Exp. 8-19, (R)-3-(3′-ethyl-6-fluoro-4′-(N-(2-hydroxy-3-(2-methyl-5-(pyridin-4-yl)pentan-2-ylamino)propyl)-N-methylsulfamoyl)biphenyl-2-yl)propionic acid]
  IC50 values according to the intracellular Ca assay (CaSR antagonist activity): 3.0 to 1.0 μM

## CCc1cc(-c2c(F)cccc2CCC(=O)O)ccc1S(=O)(=O)N(C)C[C@H](O)CNC(C)(C)CCCc1ccsc1 [Exp. 8-24, (R)-3-(3′-ethyl-6-fluoro-4′-(N-(2-hydroxy-3-(2-methyl-5-(thiophen-3-yl)pentan-2-ylamino)propyl)-N-methylsulfamoyl)biphenyl-2-yl)propionic acid]
  IC50 values according to the intracellular Ca assay (CaSR antagonist activity): 1.0 to 0.3 μM

## CN(C[C@H](O)CNC(C)(C)CCCc1ccccc1)S(=O)(=O)c1cc(-c2sccc2CCC(=O)O)cc(C(F)(F)F)c1 [Exp. 9-1, (R)-3-(2-(3-(N-(2-hydroxy-3-(2-methyl-5-phenylpentan-2-ylamino)propyl)-N-methylsulfamoyl)-5-(trifluoromethyl)phenyl)thiophen-3-yl)propionic acid]
  IC50 values according to the intracellular Ca assay (CaSR antagonist activity): 1.0 to 0.3 μM

## CN(C[C@H](O)CNC(C)(C)CC1Cc2ccccc2C1)S(=O)(=O)c1cc(-c2sccc2CCC(=O)O)cc(C(F)(F)F)c1 [Exp. 9-2, (R)-3-(2-(3-(N-(3-(1-(2,3-dihydro-1H-inden-2-yl)-2-methylpropan-2-ylamino)-2-hydroxypropyl)-N-methylsulfamoyl)-5-(trifluoromethyl)phenyl)thiophen-3-yl)propionic acid]
  IC50 values according to the intracellular Ca assay (CaSR antagonist activity): 3.0 to 1.0 μM

## CN(C[C@H](O)CNC(C)(C)CCCc1ccccc1)S(=O)(=O)c1cc(-c2ccsc2CCC(=O)O)cc(C(F)(F)F)c1 [Exp. 9-3, (R)-3-(3-(3-(N-(2-hydroxy-3-(2-methyl-5-phenylpentan-2-ylamino)propyl)-N-methylsulfamoyl)-5-(trifluoromethyl)phenyl)thiophen-2-yl)propionic acid]
  IC50 values according to the intracellular Ca assay (CaSR antagonist activity): 1.0 to 0.3 μM

## CN(C[C@H](O)CNC(C)(C)CC1Cc2ccccc2C1)S(=O)(=O)c1cc(-c2ccsc2CCC(=O)O)cc(C(F)(F)F)c1 [Exp. 9-4, (R)-3-(3-(3-(N-(3-(1-(2,3-dihydro-1H-inden-2-yl)-2-methylpropan-2-ylamino)-2-hydroxypropyl)-N-methylsulfamoyl)-5-(trifluoromethyl)phenyl)thiophen-2-yl)propionic acid]
  IC50 values according to the intracellular Ca assay (CaSR antagonist activity): 1.0 to 0.3 μM
